These are yes or no findings as the source states them, for the method shown. In cells and extracts the contact can be indirect. A result given as binding can be weak or reduced; the word gives no strength. Tags and fused reporters may be left off the sequences shown.
Biological target: human MettL5 with a C-terminal His6 tag (human)
Experiment: co-purification (Ni-NTA, ion exchange, SEC); MettL5-His6 and untagged Trm112 co-expressed in E. coli; Ni-NTA eluted with 250 mM imidazole, HiTrap Q-HP eluted at 300 mM NaCl, Superdex 200 at 150 mM NaCl; 4 °C; SDS-PAGE with Coomassie blue staining

B1: human Trm112, without any fused tag (protein, UniProt Q9UI30-1 1-125)
chain: MKLLTHNLLSSHVRGVGSRGFPLRLQATEVRICPVEFNPNFVARMIPKVEWSAFLEAADNLRLIQVPKGPVEGYEENEEFLRTMHHLLLEVEVIEGTLQCPESGRMFPISRGIPNMLLSEEETES
  binding: binds

Reference: article PMC7948815
